PubChem BioAssay AID1259254 | NCATS | 2017

Assay: 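Finding genes that stop cells copying their DNA twice in one cycle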 (primary screen)
Cells: human HCT116 colorectal cancer cells
Reagent: single siRNA against human genes
Duration: 3 days
Detection: 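Imaged Hoechst DNA stain sorts each cell into a cycle phase by DNA amount; per plate, G2 fraction set to 0% for non-targeting and 100% for GMNN siRNA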
Scale: G2 robust z-score and G2 cells, % of GMNN control: higher = more G2 cells, more excess DNA replication; raw share of cells in G2: higher = larger share of cells with G2 DNA content
Hit rule: 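Active siRNAs have a G2 robust z of 5 or more median absolute deviations over the median, which in these data means about 38% or higher of GMNN control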
The deposit covers about 59,000 reagents; below is a part drawn at random. Of all reagents, about 1,550 (2.6%) got an active call. 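G2 share is only a proxy for re-replication; each gene was hit by three separate siRNAs, and active genes were retested.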 Raw values are not corrected between plates. The record does not give: the amount of reagent.

| target gene | PubChem SID | G2 robust z-score | G2 cells, % of GMNN control | raw share of cells in G2 (%) | outcome |
| --- | --- | --- | --- | --- | --- |
| GTF2B | SID160774682 | 2.21 | 18.5 | 10.8 | inactive |
| GTF2B | SID160774683 | 0.0233 | 3.13 | 6.31 | inactive |
| GTF2B | SID160774684 | 2.15 | 18.1 | 9.67 | inactive |
| ANKRD39 | SID160740386 | -0.381 | 0.286 | 3.96 | inactive |
| ANKRD39 | SID160740387 | -0.99 | -4 | 3.04 | inactive |
| ANKRD39 | SID160740388 | 2.13 | 18 | 8.91 | inactive |
| PNPLA3 | SID160750421 | 0.905 | 9.34 | 9.32 | inactive |
| PNPLA3 | SID160750422 | -0.628 | -1.45 | 4.25 | inactive |
| PNPLA3 | SID160750423 | 0.556 | 6.88 | 6.69 | inactive |
| CNGB1 | SID160745198 | 0.53 | 6.7 | 7.73 | inactive |
| CNGB1 | SID160745209 | -0.563 | -0.994 | 4.45 | inactive |
| CNGB1 | SID160745220 | 1.1 | 10.7 | 8.55 | inactive |
| ATP2A3 | SID160721601 | -1.34 | -6.45 | 2.94 | inactive |
| ATP2A3 | SID160721613 | 0.538 | 6.75 | 7.07 | inactive |
| ATP2A3 | SID160721624 | -1.08 | -4.63 | 2.57 | inactive |
| PARP16 | SID160742593 | -1.11 | -4.86 | 1.86 | inactive |
| PARP16 | SID160742594 | 3.46 | 27.3 | 15.8 | inactive |
| PARP16 | SID160742595 | 5.05 | 38.5 | 15.9 | active |
| GGT5 | SID160770706 | 2.34 | 19.5 | 12.3 | inactive |
| GGT5 | SID160770717 | -1.49 | -7.54 | 2.24 | inactive |
| GGT5 | SID160770728 | 1 | 10 | 7.65 | inactive |
| APIP | SID160739981 | 0.0167 | 3.08 | 4.98 | inactive |
| APIP | SID160739983 | -0.858 | -3.07 | 4.56 | inactive |
| APIP | SID160739984 | -1.11 | -4.87 | 2.44 | inactive |
| AP1G1 | SID160715265 | -0.723 | -2.12 | 4 | inactive |
| AP1G1 | SID160715276 | 0.808 | 8.65 | 7.21 | inactive |
| AP1G1 | SID160715286 | 0.487 | 6.4 | 7.35 | inactive |
| WDR7 | SID160736042 | -0.689 | -1.88 | 3.7 | inactive |
| WDR7 | SID160736043 | 4.13 | 32 | 17.8 | inactive |
| WDR7 | SID160736044 | 3.39 | 26.8 | 12.7 | inactive |
| CT55 | SID160733577 | -0.419 | 0.0181 | 3.2 | inactive |
| CT55 | SID160742624 | 0.615 | 7.29 | 6.21 | inactive |
| CT55 | SID160742625 | 0.72 | 8.03 | 7.65 | inactive |
| STAP1 | SID160737790 | -0.577 | -1.09 | 5.25 | inactive |
| STAP1 | SID160737791 | 0.709 | 7.95 | 8.08 | inactive |
| STAP1 | SID160737792 | 1.27 | 11.9 | 7.49 | inactive |
| CYB5R5 | SID160733699 | -0.111 | 2.19 | 3.86 | inactive |
| CYB5R5 | SID160768366 | -0.937 | -3.63 | 2.22 | inactive |
| CYB5R5 | SID160768367 | 3.65 | 28.6 | 14.3 | inactive |
| FKBP11 | SID160731362 | 6.07 | 45.7 | 21.1 | active |
| FKBP11 | SID160740551 | 0.104 | 3.7 | 7.63 | inactive |
| FKBP11 | SID160740552 | -0.0386 | 2.7 | 4.83 | inactive |
| NDUFV3 | SID160777922 | 1.6 | 14.2 | 10.9 | inactive |
| NDUFV3 | SID160777924 | -0.758 | -2.37 | 2.41 | inactive |
| NDUFV3 | SID160777925 | -0.911 | -3.44 | 4.11 | inactive |
| SLC25A51P1 | SID160768162 | 1.16 | 11.1 | 10.7 | inactive |
| SLC25A51P1 | SID160768163 | -1.12 | -4.88 | 3.05 | inactive |
| SLC25A51P1 | SID160768164 | 0.433 | 6.01 | 6.48 | inactive |

Limited to “G2 cells, % of GMNN control” (7 entries from above):
PNPLA3 [SID160750423] = 6.88
CNGB1 [SID160745198] = 6.7
CNGB1 [SID160745209] = -0.994
CNGB1 [SID160745220] = 10.7
ATP2A3 [SID160721601] = -6.45
ATP2A3 [SID160721613] = 6.75
ATP2A3 [SID160721624] = -4.63
